Reference: patent publication US8936667B2, “Aqueous leaching process for recovery of precious metals with addition of di-thiooxamide ligand” (Anglo Operations Limited, priority 2009, dated 2015)
Values joined by “and” are separate entries in the source; they are usually repeats but may differ in a detail not shown here. Equal entries are not always repeated.

Experiments:
[1] = Leaching of Witwatersrand gold ore, parameter studies (Example 2)
Description: A head sample was submitted with every batch of samples in order to minimise errors caused by discrepancies in analysis among batches. The metal extractions for a particular batch of samples were therefore calculated using the head sample analysis from the same batch.
Deionised water was used in all preparation, dissolution, leach and washing steps.
The leach procedure was as follows:
The required amounts of ligand and alkaline water were mixed in a jacketed leach reactor until the ligand was fully dissolved. The ore was then added to the solution (unless otherwise specified, initial solids concentration was 17% m/m) and the reactor lid was fitted on. A stirring impeller, pH and (Ag/AgCl) redox electrodes, titration dispensing tube, temperature probe and gas distribution tube (if oxygen was used) were fitted into ports in the lid. The ore was then leached for the required amount of time. A water bath was used to maintain the leach temperature for the duration of the leach. The leach pH was controlled with an autotitrator. If oxygen was the oxidant, a mass flow controller was used to control oxygen-flow into the solution. At the end of the leach period, the slurry was filtered and the residue was given at least two water washes using water of the same pH as the leach solution, followed by a final wash with deionised water. The leach filtrate, wash solutions and dried solid residue were then submitted for analysis.

[2] = DTO leaching of PGM concentrate 1; settings: 1 g/l DTO, 25° C., 24 h leach time
[3] = Leaching of gold ore with alkaline dithiooxamide solution (Example 1); settings: 25° C., 24 h, O2 2 l/min
[4] = DTO purity 98.0%, final pH 13.6, final Eh 61.9 mV vs SHE
[5] = DTO purity 98.5%, final pH 13.3, final Eh 60.9 mV vs SHE

With `NC(=S)C(N)=S` [DTO, dithiooxamide] the Gold extracted ([1]; 0.38 g/l DTO, 25° C., 24 h, pH 13.5, O2) was “Over 90%”, the Gold extraction ([1]; between pH 11-12, 25° C., 24 h, O2, 0.9 g/l DTO) was “significantly lower extractions” and the Gold extraction ([1]; oxygen alone 3 l/min, 24 h sample, 25° C., 0.9 g/l DTO) was “Greater than 90%”. The Gold extraction ([1]; oxygen flow rates of 2.5 to 3 l/min, 25° C., 24 h, pH 12 control, 0.9 g/l DTO) was > 90%, the Gold extraction ([1]; pH 12-14 range, 25° C., 24 h, O2, 0.9 g/l DTO) was > 90% and the Gold extraction ([1]; solution Eh above 60 mV (vs SHE)) was > 90%. For the same molecule, the “Metal extractions, % Au” value [2] was 38% and 21% and 28%, the “Metal extractions, % Pd” value [2] was 27% and 28% and 24% and the “Metal extractions, % Pt” value [2] was ~40% and 37% and 38%. For the same molecule, the “Metal Extraction, % Al” value [3, 4] was 16%, the “Metal Extraction, % Au” value [3, 4] was 91% and the “Metal Extraction, % Ce” value [3, 4] was 4.1%. For the same molecule, the “Metal Extraction, % Fe” value [3, 4] was <0.05%, the “Metal Extraction, % Si” value [3, 4] was 5.7% and the “Metal Extraction, % U” value [3, 4] was 3.7%. The “Metal Extraction, % Al” value [3, 5] was 11%, the “Metal Extraction, % Au” value [3, 5] was 97% and the “Metal Extraction, % Ce” value [3, 5] was <0.00005%. For the same molecule, the “Metal Extraction, % Fe” value [3, 5] was <0.05%, the “Metal Extraction, % Si” value [3, 5] was 11% and the “Metal Extraction, % U” value [3, 5] was 4.3%.
